From ChEMBL document CHEMBL3988442, “University of Dundee, Small-Polar-MMV Screening Library” (2021).

The chains behind the UniProt entries cited, without tags or fusion partners. Residues count along the entry.
UniProt P9WPC5, whole entry: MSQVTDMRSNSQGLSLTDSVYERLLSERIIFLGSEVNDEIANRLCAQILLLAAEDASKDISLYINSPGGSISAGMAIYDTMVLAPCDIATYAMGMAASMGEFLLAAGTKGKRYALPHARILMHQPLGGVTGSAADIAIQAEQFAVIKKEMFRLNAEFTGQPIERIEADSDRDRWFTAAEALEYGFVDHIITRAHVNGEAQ
UniProt P9WPC3, whole entry partner: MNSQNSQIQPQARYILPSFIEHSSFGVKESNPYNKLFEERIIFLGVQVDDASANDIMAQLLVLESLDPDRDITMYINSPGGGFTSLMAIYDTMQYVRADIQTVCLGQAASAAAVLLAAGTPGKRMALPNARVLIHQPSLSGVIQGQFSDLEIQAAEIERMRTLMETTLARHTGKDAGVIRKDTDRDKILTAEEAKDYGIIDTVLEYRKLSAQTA
UniProt P9WNZ1, whole entry: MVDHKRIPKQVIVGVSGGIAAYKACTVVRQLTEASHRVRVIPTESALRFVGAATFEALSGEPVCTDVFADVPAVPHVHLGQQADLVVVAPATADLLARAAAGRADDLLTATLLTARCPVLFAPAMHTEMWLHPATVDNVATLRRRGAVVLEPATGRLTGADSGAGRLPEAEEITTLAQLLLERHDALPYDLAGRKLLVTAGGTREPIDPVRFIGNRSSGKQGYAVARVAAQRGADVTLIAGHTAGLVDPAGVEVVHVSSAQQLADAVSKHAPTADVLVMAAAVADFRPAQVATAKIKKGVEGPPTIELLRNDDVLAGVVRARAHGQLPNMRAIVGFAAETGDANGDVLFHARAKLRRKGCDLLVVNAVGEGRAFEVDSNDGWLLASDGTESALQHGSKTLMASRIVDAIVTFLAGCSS
UniProt A4I591, 1-473: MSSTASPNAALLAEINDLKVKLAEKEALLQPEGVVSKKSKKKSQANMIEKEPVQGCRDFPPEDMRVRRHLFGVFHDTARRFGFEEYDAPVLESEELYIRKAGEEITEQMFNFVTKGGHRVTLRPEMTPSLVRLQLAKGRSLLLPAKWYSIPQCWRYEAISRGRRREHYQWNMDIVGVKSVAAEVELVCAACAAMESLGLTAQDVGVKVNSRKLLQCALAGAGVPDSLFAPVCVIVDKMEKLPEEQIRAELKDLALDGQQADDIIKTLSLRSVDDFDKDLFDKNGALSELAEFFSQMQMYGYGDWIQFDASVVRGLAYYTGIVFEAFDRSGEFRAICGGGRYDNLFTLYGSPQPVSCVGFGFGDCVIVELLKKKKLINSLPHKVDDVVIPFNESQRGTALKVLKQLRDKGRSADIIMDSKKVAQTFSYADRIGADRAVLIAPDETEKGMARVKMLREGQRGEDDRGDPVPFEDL

ClpP1P2: 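Protease assay of ClpP1P2, read by the AMC dye that it sets free. Target: ClpP1P2, Mycobacterium tuberculosis (UniProt P9WPC5 and UniProt P9WPC3). Tested at 50 µM. Higher reads as stronger inhibition, judged from the few compounds that gave an IC50. Most other retested compounds had strongly negative values. Of about 69,000 compounds tested this way, about 10 (0.015%) reached 50% or more in at least one test.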
CoaBC: 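Coenzyme A biosynthesis protein CoaBC, Mycobacterium tuberculosis (UniProt P9WNZ1). Enzyme assay of CoaBC with a phosphate dye (Biomol Green) read at 650 nm. Compounds at 30 µM. Higher reads as stronger inhibition, judged from the few compounds that gave an IC50. Most strong results did not repeat in a second test. Size under these conditions: about 67,000 compounds, about 40 of them at 50% or above in at least one test.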
Leishmania in macrophages: 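Cell assay of Leishmania donovani living inside macrophages; the read-out is not stated. Tested at 30 µM. Higher reads as stronger inhibition (inferred: compounds with an IC50 in retests scored well above the rest). About 69,000 compounds were tested under these conditions; 1.5% (about 1,000) showed 50% or more at least once.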
LiHisRS: 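Histidine-tRNA ligase, Leishmania infantum (UniProt A4I591). Enzyme assay of histidyl-tRNA synthetase; the read-out is not stated. Concentration: 30 µM. Higher reads as stronger inhibition (inferred: compounds with an IC50 in retests scored well above the rest). The assay is labelled LdHisRS but filed under L. infantum. About 69,000 compounds were tested under these conditions; 0.6% (about 410) showed 50% or more at least once.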

The filed quantity is “Percent Effect” (%).
The record does not define 0% and 100%; most values in the screen are far below 50% and negative numbers occur (in some assays of this library far below -100).
The compounds are a random part of those screened.
Two or more numbers in one place are separate tests of the same structure; such repeats can differ widely.
A dash means the value is not listed here; it may have been measured.

Compound: CC(C)C[C@H](N)C(=O)N1CCSc2ccccc2C1
ClpP1P2: -10.89%
CoaBC: -8.43%
LiHisRS: 8.163%

Compound: CN(C)S(=O)(=O)N1CC[C@]2(C[C@@H](OCC3CC3)CO2)C1
ClpP1P2: -1.16%
CoaBC: -0.2037%
Leishmania in macrophages: 11.47%
LiHisRS: 2.632%

Compound: CN(C)C(=O)c1cn[nH]c1C1(C)CCCN(Cc2ccccn2)C1 (centres undefined)
ClpP1P2: -2.967%
CoaBC: 3.893%
Leishmania in macrophages: 15.16% & 24.26%
LiHisRS: 7.368%

Compound: OCCN1CCN(Cc2coc(-c3cccc(Cl)c3)n2)CC1
ClpP1P2: -0.2446%
CoaBC: 3.345%
Leishmania in macrophages: 20.79%
LiHisRS: 13.46%

Compound: CNc1nc(CNC(=O)Nc2ccc(OC(C)C)cc2C)cs1
ClpP1P2: 0.3144%
CoaBC: 1.24%
Leishmania in macrophages: 4.182%
LiHisRS: 1.333%

Compound: [H][C@@]12CN(C(=O)C3CCOC3)C[C@@]1([H])N(CC(C)C)C(=O)CO2 (some centres undefined)
Leishmania in macrophages: -3.415%

Compound: O=C(O)C(F)(F)F.O=C(O)C(F)(F)F.c1cn2c(n1)CN(CC1CC1)CC(CN1CCOCC1)C2 (centres undefined)
Leishmania in macrophages: 22.88%

Compound: Cn1cc2ncn(CCNc3cccnc3)c(=O)c2n1
ClpP1P2: -3.332%
CoaBC: 1.923%
Leishmania in macrophages: 10.02%
LiHisRS: 16.67%

Compound: O=C(NCC1(O)CCOc2ccccc21)Nc1ccccc1 (centres undefined)
ClpP1P2: -11.58%
CoaBC: -2.886%
Leishmania in macrophages: 35.58%
LiHisRS: 11.86%

Compound: CNC(=O)[C@@H](c1ccccc1OC)N1CCC[C@H]1C(=O)NCCN(C)C.Cl.Cl
Leishmania in macrophages: 11.16%

Compound: O=C(O)CC(CC(=O)NCc1ccsc1)c1cccs1 (centres undefined)
ClpP1P2: -11.61%
CoaBC: 1.277%
Leishmania in macrophages: -86.58%
LiHisRS: 25.97%

Compound: CCc1ccc(OCC(O)CN2CCN(CCO)CC2)cc1.Cl.Cl (centres undefined)
Leishmania in macrophages: 12.67%

Compound: CSCC(=O)N1CCC(Oc2cccc(C)c2)CC1
ClpP1P2: -7.426%
CoaBC: 10.91%
Leishmania in macrophages: -36.21%
LiHisRS: 13.7%

Compound: CNC(=O)N1CCC2(CC1)c1ncc(C)n1CCN2C.O=C(O)C(F)(F)F.O=C(O)C(F)(F)F
Leishmania in macrophages: -2.051%

Compound: COCCn1cc2c(n1)C(CNCc1nccs1)OCC2.O=C(O)C(F)(F)F.O=C(O)C(F)(F)F (centres undefined)
Leishmania in macrophages: 4.348%

Compound: CCc1c(C)nn(CCNC(=O)c2csc(C)n2)c1C
ClpP1P2: -25.29%
CoaBC: -1.279%
Leishmania in macrophages: 33.99%
LiHisRS: 14.75%

Compound: NC(=O)N1CCCN(Cc2cc(F)cc(Br)c2)CC1
ClpP1P2: -22.01%
CoaBC: 2.405%
Leishmania in macrophages: -6.701%
LiHisRS: 10%

Compound: CN(Cc1ccc2nsnc2c1)C(=O)CCc1cc2n(n1)CCCNC2
ClpP1P2: -5.878%
CoaBC: 3.478%
Leishmania in macrophages: 28.59%
LiHisRS: -11.11%

Compound: CSc1ccc(NS(=O)(=O)c2cnn(C)c2)cn1
ClpP1P2: -0.1622%
CoaBC: -2.796%
Leishmania in macrophages: 24.83%
LiHisRS: 17.14%

Compound: CC(C)CN1CCC2(C1)CN(S(=O)(=O)c1cn(C)cn1)C2
ClpP1P2: 13.57%
CoaBC: -3.342%
LiHisRS: 15.84%

Compound: O=c1oc(-c2cccs2)nn1CC(O)c1ccccc1 (centres undefined)
ClpP1P2: -1.303%
CoaBC: -2.232%
Leishmania in macrophages: 27.28%
LiHisRS: 18.45%

Compound: CN(C)CC(=O)N1CCC2(CC1)COC(COc1ccccn1)C2.O=C(O)C(F)(F)F.O=C(O)C(F)(F)F (centres undefined)
Leishmania in macrophages: 15.87%

Compound: [H][C@@]12CN(Cc3ccccn3)C[C@]1([H])CN(C(=O)C1CCOC1)C2 (some centres undefined)
Leishmania in macrophages: 29.69%

Compound: Cc1cnc(NCCCN2CCCCC2CO)nc1 (centres undefined)
ClpP1P2: 10.34%
CoaBC: 3.398%
Leishmania in macrophages: 23.35%
LiHisRS: 19.05%

Compound: Cc1ccc(S(=O)(=O)N(C)CC(C)O)c(F)c1 (centres undefined)
ClpP1P2: -2.873%
CoaBC: 0.7299%
Leishmania in macrophages: 28.7%
LiHisRS: 6.667%

The last 3 entries again:

Compound,ClpP1P2,CoaBC,Leishmania in macrophages,LiHisRS
[H][C@@]12CN(Cc3ccccn3)C[C@]1([H])CN(C(=O)C1CCOC1)C2 (some centres undefined),-,-,29.69%,-
Cc1cnc(NCCCN2CCCCC2CO)nc1 (centres undefined),10.34%,3.398%,23.35%,19.05%
Cc1ccc(S(=O)(=O)N(C)CC(C)O)c(F)c1 (centres undefined),-2.873%,0.7299%,28.7%,6.667%